Measured values published in PMC8494857.
Results are given in words; binding and its absence hold for the method and conditions named. In cells and extracts the contact can be indirect. Some results given as binding are weak or reduced against the parent protein; the word gives no strength.

By UniProt entry, the sequences of proteins in these tests, tags left out.
UniProt Q15121: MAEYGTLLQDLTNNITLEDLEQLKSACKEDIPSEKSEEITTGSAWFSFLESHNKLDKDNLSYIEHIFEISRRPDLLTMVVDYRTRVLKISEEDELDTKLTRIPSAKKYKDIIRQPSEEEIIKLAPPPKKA
UniProt O95782: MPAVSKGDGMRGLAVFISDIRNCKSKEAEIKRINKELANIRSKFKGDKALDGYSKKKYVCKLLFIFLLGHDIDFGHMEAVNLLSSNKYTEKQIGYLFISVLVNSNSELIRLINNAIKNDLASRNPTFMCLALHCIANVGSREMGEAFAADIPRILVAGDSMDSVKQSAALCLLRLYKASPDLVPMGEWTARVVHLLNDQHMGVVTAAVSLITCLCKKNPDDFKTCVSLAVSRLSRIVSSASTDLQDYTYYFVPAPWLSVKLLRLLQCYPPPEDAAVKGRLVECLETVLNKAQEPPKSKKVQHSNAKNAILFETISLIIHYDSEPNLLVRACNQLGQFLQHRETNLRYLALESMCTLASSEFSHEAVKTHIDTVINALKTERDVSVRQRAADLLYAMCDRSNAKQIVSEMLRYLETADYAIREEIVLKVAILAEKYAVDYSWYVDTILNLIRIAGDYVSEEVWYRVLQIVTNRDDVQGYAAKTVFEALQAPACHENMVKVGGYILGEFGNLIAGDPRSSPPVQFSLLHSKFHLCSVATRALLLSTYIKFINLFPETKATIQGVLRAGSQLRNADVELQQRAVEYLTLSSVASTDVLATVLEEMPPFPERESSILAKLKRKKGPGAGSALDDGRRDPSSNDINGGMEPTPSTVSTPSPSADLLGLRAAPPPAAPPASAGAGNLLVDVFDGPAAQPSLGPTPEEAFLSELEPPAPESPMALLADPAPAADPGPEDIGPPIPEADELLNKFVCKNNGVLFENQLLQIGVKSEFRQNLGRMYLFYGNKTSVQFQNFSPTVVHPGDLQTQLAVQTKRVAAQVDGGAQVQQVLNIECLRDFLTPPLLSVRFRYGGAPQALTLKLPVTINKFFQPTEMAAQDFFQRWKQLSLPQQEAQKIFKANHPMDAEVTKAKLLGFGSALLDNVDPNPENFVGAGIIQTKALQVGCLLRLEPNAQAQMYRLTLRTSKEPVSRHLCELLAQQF
UniProt Q00610: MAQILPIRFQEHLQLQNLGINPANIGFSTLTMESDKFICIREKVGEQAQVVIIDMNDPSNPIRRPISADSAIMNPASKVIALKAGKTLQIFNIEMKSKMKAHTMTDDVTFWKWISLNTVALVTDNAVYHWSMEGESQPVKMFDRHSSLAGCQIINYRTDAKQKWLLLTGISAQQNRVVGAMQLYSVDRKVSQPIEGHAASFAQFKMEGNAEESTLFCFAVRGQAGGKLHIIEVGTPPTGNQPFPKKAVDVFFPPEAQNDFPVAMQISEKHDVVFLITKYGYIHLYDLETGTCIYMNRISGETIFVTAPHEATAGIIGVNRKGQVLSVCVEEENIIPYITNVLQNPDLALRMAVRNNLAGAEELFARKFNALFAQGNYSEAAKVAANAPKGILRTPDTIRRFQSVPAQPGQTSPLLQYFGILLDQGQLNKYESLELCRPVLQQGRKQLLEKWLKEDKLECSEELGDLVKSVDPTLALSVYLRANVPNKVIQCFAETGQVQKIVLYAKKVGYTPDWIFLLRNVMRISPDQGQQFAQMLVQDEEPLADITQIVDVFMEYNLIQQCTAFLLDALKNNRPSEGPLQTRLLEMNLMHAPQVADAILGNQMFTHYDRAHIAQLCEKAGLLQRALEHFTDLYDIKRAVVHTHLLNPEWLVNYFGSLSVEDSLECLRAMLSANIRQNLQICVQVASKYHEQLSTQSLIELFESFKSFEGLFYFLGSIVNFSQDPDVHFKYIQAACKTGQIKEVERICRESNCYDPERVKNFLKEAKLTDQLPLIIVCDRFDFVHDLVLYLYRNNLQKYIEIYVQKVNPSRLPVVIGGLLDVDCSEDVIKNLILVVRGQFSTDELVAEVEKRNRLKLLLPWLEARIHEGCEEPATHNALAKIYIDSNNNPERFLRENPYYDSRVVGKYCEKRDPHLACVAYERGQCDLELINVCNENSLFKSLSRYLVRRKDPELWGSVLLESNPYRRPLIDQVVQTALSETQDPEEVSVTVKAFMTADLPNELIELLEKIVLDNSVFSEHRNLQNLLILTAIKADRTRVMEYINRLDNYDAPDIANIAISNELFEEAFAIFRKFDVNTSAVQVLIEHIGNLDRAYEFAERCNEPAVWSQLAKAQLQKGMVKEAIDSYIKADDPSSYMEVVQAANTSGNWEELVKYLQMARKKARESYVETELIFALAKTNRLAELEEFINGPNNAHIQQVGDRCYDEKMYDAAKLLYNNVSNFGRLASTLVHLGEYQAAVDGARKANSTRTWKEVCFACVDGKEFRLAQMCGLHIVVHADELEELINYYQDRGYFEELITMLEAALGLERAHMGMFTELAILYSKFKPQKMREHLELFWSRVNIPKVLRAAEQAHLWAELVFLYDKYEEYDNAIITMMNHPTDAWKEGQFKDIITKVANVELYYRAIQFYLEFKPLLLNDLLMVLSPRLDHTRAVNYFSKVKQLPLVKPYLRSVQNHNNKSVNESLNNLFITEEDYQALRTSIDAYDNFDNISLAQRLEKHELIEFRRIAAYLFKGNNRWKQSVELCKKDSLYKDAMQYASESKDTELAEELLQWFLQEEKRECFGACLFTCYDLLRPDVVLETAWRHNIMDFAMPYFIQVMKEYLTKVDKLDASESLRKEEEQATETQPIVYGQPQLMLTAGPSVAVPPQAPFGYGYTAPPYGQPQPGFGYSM

Key:
[1] = molecular target: PEA-15 (Phosphoprotein Enriched in Astrocytes of 15 kDa) (human (endogenous in U87MG)) (UniProt Q15121); assay: proximity ligation; Duolink in situ PLA of endogenous proteins in fixed, permeabilized U251MG cells, serum starved 18 h then 100 ng/ml EGF for 10 min; antibody to PEA-15 and either clathrin or AP-2; PEA-15 antibodies alone as negative control
[2] = molecular target: PEA-15 (Phosphoprotein Enriched in Astrocytes of 15 kDa) (human (endogenous in U87MG)) (UniProt Q15121); assay: co-IP; U87MG lysate, immunoprecipitation of PEA-15 with anti-PEA-15 antibodies; clathrin heavy chain detected by Western blot

binding [1] | binding [2] | Substance
binds |  | AP-2 complex subunit alpha-1 (from UniProt O95782 1-977)
binds | binds | Clathrin heavy chain 1 (from UniProt Q00610 1-1675)
